Assay results from paper doi:10.1101/2023.12.22.573053.
Results are given in words; binding and its absence hold for the method and conditions named. Some entries that bind do so weakly or less than the wild type. For part of these data: Where a sequence is shown, tags or fusion partners need not be part of it.

Protein sequences, listed by entry. Tags and fused reporters are not part of them.
UniProt P62318: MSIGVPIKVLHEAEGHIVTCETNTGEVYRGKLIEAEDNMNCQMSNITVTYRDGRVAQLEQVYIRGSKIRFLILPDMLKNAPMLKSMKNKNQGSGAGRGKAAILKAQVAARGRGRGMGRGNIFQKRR

What was measured:
Experiment in all cases: cryo-EM structure
[1] = molecular target: SmD3 (human (endogenous in HEK293F)) (UniProt P62318)
[2] = molecular target: T1, SNRNP35 (ProteinA-TEV-3×HA-tagged) (human) (UniProt Q16560)
T1 sequence: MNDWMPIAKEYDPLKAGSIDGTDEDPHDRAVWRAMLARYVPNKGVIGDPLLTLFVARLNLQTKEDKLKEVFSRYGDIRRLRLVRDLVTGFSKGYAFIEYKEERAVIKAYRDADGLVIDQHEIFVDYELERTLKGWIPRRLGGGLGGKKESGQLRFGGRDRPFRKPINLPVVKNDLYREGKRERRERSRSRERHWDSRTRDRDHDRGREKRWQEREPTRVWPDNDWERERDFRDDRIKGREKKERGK

[3] = molecular target: T2, SNRNP25 (human (endogenous in HEK293F)) (UniProt Q9BV90)
T2 sequence: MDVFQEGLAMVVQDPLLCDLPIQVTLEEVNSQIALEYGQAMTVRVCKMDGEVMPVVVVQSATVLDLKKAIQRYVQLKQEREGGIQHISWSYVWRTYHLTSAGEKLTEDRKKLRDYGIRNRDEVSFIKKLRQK

B1: ZMAT5 (protein, UniProt Q9UDW3 1-170)
chain: MGKRYFCDYCDRSFQDNLHNRKKHLNGLQHLKAKKVWYDMFRDAAAILLDEQNKRPCRKFLLTGQCDFGSNCRFSHMSERDLQELSIQVEEERRAREWLLDAPELPEGHLEDWLEKRAKRLSSAPSSRAEPIRTTVFQYPVGWPPVQELPPSLRAPPPGGWPLQPRVQWG
- binding [1]: binds

B2: SNRNP25 (protein, UniProt Q9BV90 1-132)
chain: T2 sequence
- binding [2]: binds

B3: PDCD7 (protein, UniProt Q8N8D1 1-485)
chain: MALPPFFGQGRPGPPPPQPPPPAPFGCPPPPLPSPAFPPPLPQRPGPFPGASAPFLQPPLALQPRASAEASRGGGGAGAFYPVPPPPLPPPPPQCRPFPGTDAGERPRPPPPGPGPPWSPRWPEAPPPPADVLGDAALQRLRDRQWLEAVFGTPRRAGCPVPQRTHAGPSLGEVRARLLRALRLVRRLRGLSQALREAEADGAAWVLLYSQTAPLRAELAERLQPLTQAAYVGEARRRLERVRRRRLRLRERAREREAEREAEAARAVEREQEIDRWRVKCVQEVEEKKREQELKAAADGVLSEVRKKQADTKRMVDILRALEKLRKLRKEAAARKGVCPPASADETFTHHLQRLRKLIKKRSELYEAEERALRVMLEGEQEEERKRELEKKQRKEKEKILLQKREIESKLFGDPDEFPLAHLLEPFRQYYLQAEHSLPALIQIRHDWDQYLVPSDHPKGNFVPQGWVLPPLPSNDIWATAVKLH
- binding [3]: binds
